PubChem BioAssay AID504744, Drosophila RNAi Screening Center – 2011
Screen: 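Find genes whose loss alters insulin-driven dAkt phosphorylation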 (primary screen). Cell system: Drosophila Kc167 cells. Knock-down reagent: long dsRNA against Drosophila genes, 250 ng dsRNA per well of a 384-well plate. Timing: 3 days of knock-down, then overnight serum-free starvation before stimulation. Challenge: bovine insulin at 387 nM for 10 minutes after 12 h without serum. Measurement: 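Per-well phospho-dAkt level from an in-cell fluorescent antibody stain, divided by a DNA-dye signal; log2 residuals turned into z-scores that take cell number into account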. Hit rule: 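Under insulin, a gene counts as a hit if the average z-score of two replicates lies above 2.5 or below -2.5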.
In all, the deposit lists about 23,000 reagents; below is an unselected part of those that have a named target and a result. Over the whole deposit, 98 (0.43%) got an active call. 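Only hit calls are given; the phospho-dAkt signals, z-scores and hit direction were not deposited.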 Names joined by + are all predicted targets of the reagent.

Gene | DRSC id | outcome
fs(1)N | DRSC18578 | inactive
Slbp | DRSC16863 | inactive
CG12990 | DRSC19510 | inactive
Nepl5 | DRSC03241 | inactive
CG11357 | DRSC08183 | inactive
CG4582 | DRSC15605 | inactive
cola + swif | DRSC06826 | inactive
cola + swif | DRSC21965 | inactive
CG42374 + Mettl5 | DRSC11085 | inactive
Cad86C | DRSC15587 | inactive
Cad86C | DRSC15611 | inactive
CG31820 | DRSC21318 | inactive
CG15731 | DRSC19698 | inactive
CG15731 | DRSC21820 | inactive
pit | DRSC17025 | inactive
pit | DRSC22798 | inactive
vn | DRSC11408 | inactive
vito | DRSC21781 | inactive
se | DRSC10713 | inactive
ABCB7 | DRSC08603 | inactive
Vajk1 | DRSC01882 | inactive
CG3104 | DRSC00567 | inactive
CG33269 | DRSC10585 | inactive
CG13908 (retired record) | DRSC08378 | inactive
CG15651 | DRSC04242 | inactive
Muc96D | DRSC13709 | inactive
Muc96D | DRSC21609 | inactive
CG30196 | DRSC04156 | inactive
CG5191 | DRSC15733 | inactive
CG5191 | DRSC15734 | inactive
CG5191 | DRSC21559 | inactive
tud | DRSC04719 | inactive
CG15011 | DRSC08464 | inactive
BubR1 | DRSC04838 | inactive
Pif1A | DRSC12708 | inactive
Pif1A | DRSC14383 | inactive
E(spl)m3-HLH | DRSC16694 | inactive
TwdlU | DRSC12224 | inactive
Pi3K68D | DRSC11253 | inactive
CG13855 | DRSC14705 | inactive
CG46298 | DRSC06222 | inactive
HBS1 | DRSC08544 | inactive
Snap25 | DRSC21228 | inactive
Snap25 | DRSC21236 | inactive
cysu | DRSC15902 | inactive
exex | DRSC10972 | inactive
ftz | DRSC12626 | inactive
Lmpt | DRSC09450 | inactive
Lmpt | DRSC09864 | inactive
Lmpt | DRSC09865 | inactive
Lmpt | DRSC09866 | inactive
Lmpt | DRSC11107 | inactive
Lmpt | DRSC21738 | inactive
Lmpt | DRSC22921 | inactive
CG34384 | DRSC12644 | inactive
CG34384 | DRSC14855 | inactive
CG34384 | DRSC15444 | inactive
CG34384 | DRSC16575 | inactive
Ilp3 | DRSC10168 | inactive
CG15099 | DRSC06528 | inactive
MtnC | DRSC22879 | inactive
CG7755 | DRSC07040 | inactive
CG10654 | DRSC09767 | inactive
CG16711 | DRSC10220 | inactive
Pdk | DRSC07504 | inactive
CCHa1 | DRSC14821 | inactive
Zip89B | DRSC16128 | inactive
Klp61F | DRSC08671 | inactive
Acn | DRSC02062 | inactive
lectin-28C | DRSC03010 | inactive
Obp99b | DRSC16264 | inactive
MED19 | DRSC10516 | inactive
CG30026 | DRSC05276 | inactive
CG16890 | DRSC01890 | inactive
Rad17 | DRSC16811 | inactive
mfr | DRSC10543 | inactive
CG30177 | DRSC22680 | inactive
CG8298 | DRSC07138 | inactive
CG1847 | DRSC19810 | inactive
baz | DRSC20309 | inactive
CG12917 | DRSC06231 | inactive
ppan | DRSC17030 | inactive
Gpdh2 | DRSC04346 | inactive
GILT3 | DRSC14672 | inactive
Mal-B2 | DRSC02417 | inactive
Camta | DRSC06440 | inactive
Camta | DRSC06441 | inactive
Camta | DRSC07272 | inactive
CG15226 (retired record) | DRSC03829 | inactive
CG15226 (retired record) | DRSC04233 | inactive
dup | DRSC07088 | inactive
Bicra | DRSC14417 | inactive
CG30016 | DRSC05242 | inactive
Mpi | DRSC16417 | inactive
CG32453 | DRSC21673 | inactive
Mpp6 | DRSC03169 | inactive
CG31407 | DRSC12761 | inactive
CG30411 | DRSC04004 | inactive
CG6550 | DRSC07001 | inactive
CG2444 | DRSC19846 | inactive
Phyhd1 | DRSC14911 | inactive
Sec16 | DRSC19788 | active
Sec16 | DRSC19858 | inactive
CG12935 + Nop10 | DRSC07025 | inactive
Nse1 | DRSC02147 | inactive
CG7065 | DRSC18420 | inactive
CG9813 | DRSC16569 | inactive
Cpr100A | DRSC14465 | inactive
Dpy-30L1 | DRSC02959 | inactive
CG9861 | DRSC04576 | inactive
LS2 | DRSC04340 | inactive
Best2 | DRSC09712 | inactive
l(2)k10201 | DRSC06439 | inactive
l(2)k10201 | DRSC07640 | inactive
lectin-33A | DRSC02529 | inactive
lectin-33A | DRSC22116 | inactive
CCAP | DRSC15674 | inactive
CG14929 + CG4970 | DRSC02411 | inactive
CG14929 + CG4970 | DRSC02796 | inactive
CG4835 | DRSC10452 | inactive
CG6567 | DRSC16066 | inactive
CG9377 | DRSC03217 | inactive
CG13077 | DRSC02181 | inactive
EMC2B + EMC2A | DRSC15241 | inactive
CG13502 | DRSC04147 | inactive
Pen | DRSC03396 | inactive
Vps60 | DRSC10610 | inactive
CG14200 | DRSC19555 | inactive
CG14042 + SP555 | DRSC02367 | inactive
CG14042 + SP555 | DRSC03428 | inactive
ND-B14.7 | DRSC04544 | inactive
CG13912 | DRSC08381 | inactive
PolE1 | DRSC16112 | inactive
CG1161 | DRSC12180 | inactive
dpr12 | DRSC04814 | inactive
dpr12 | DRSC04863 | inactive
dpr12 | DRSC04892 | inactive
CG31954 | DRSC00580 | inactive
CG12170 | DRSC12199 | inactive
CG17739 | DRSC06689 | inactive
CG31050 | DRSC13883 | inactive
CG32115 | DRSC22607 | inactive
Amy-p | DRSC06786 | inactive
mle | DRSC04921 | inactive
CG13202 | DRSC06326 | inactive
CheA7a | DRSC17965 | inactive
CG2076 | DRSC19832 | inactive
CG14253 | DRSC14748 | inactive
Xe7 | DRSC12307 | inactive
CG13563 | DRSC22153 | inactive
CG9331 | DRSC03206 | inactive
CG34316 | DRSC13080 | inactive
SP2353 | DRSC07545 | inactive
CG17593 | DRSC00504 | inactive
CG11379 | DRSC18629 | inactive
mud | DRSC19019 | inactive
CG1307 | DRSC12492 | inactive
CG32986 | DRSC02509 | inactive
CG15423 | DRSC00437 | inactive
CG9302 | DRSC03191 | inactive
CaMKI | DRSC17162 | inactive
CG14634 | DRSC17944 | inactive
Cpr47Eg | DRSC07330 | inactive
CG7523 | DRSC16254 | inactive
CG6962 | DRSC16153 | inactive
Dh44-R1 | DRSC07172 | inactive
Kebab | DRSC00827 | inactive
Mtr3 | DRSC10953 | inactive
Ugt35D1 | DRSC15107 | inactive
CtsL4 | DRSC02849 | inactive
wapl | DRSC18851 | inactive
brp | DRSC06245 | inactive
brp | DRSC06246 | inactive
brp | DRSC06801 | inactive
brp | DRSC21893 | inactive
CG13829 | DRSC14679 | inactive
Boh2 | DRSC02777 | inactive
ova | DRSC02879 | inactive
CG4554 | DRSC04473 | inactive
CG14455 | DRSC11712 | inactive
CG12546 | DRSC11676 | inactive
CG2616 | DRSC15440 | inactive
CG4995 | DRSC02801 | inactive
CG1309 | DRSC08302 | inactive
CG42518 + MED9 | DRSC06917 | inactive
Syx16 | DRSC20507 | inactive
Bka | DRSC02757 | inactive
Cht7 | DRSC08538 | inactive
Cht7 | DRSC21783 | inactive
CG42662 + CG30080 | DRSC05571 | inactive
Tsp47F | DRSC07325 | inactive
CG7408 | DRSC10841 | inactive
ida | DRSC08163 | inactive
CG33468 | DRSC22940 | inactive
CG34337 | DRSC18435 | inactive
CG9953 | DRSC11106 | inactive
CG14963 | DRSC08422 | inactive
CG30269 | DRSC04158 | inactive
Strn-Mlck | DRSC05032 | inactive
Strn-Mlck | DRSC05598 | inactive
Strn-Mlck | DRSC07471 | inactive
